The nature of the series: peptide synthesis. The conditions noted are these: lipidation step, HPLC Method 1, several disulfide bridges, sequence written open.

Take “B(1-29)-B22K((eps)hexadecandioyl-gGlu)-B29H-TGLGSGR-A(1-21)-A18Q-A21G Human insulin”: the “purity (crude or final not stated)” value was 99.2%.

Values taken from patent US20090069215A1 (Novo Nordisk A/S, priority 2006, published 2009).
